The record followed here is PubChem BioAssay AID248 (DTP/NCI, 2004).

For this assay, the system named is L1210 leukemia ip in BDF1 mice, survival T/C. In words: NCI In Vivo Anticancer Drug Screen. Data for tumor model L1210 Leukemia (intraperitoneal) in B6D2F1 (BDF1) mice. The conditions noted are these: T/C endpoint: mean survival time, higher T/C = longer survival.
The mark [1] stands for this setting: dose: 200.0 mg/kg/injection, schedule: Q01DX009 (ip), vehicle: saline.
Where [2] appears, read: dose: 200.0 mg/kg/injection, schedule: Q04DX003 (ip), vehicle: Klucel (hydroxypropylcellulose) (HPC).
The mark [3] stands for this setting: dose: 400.0 mg/kg/injection, schedule: Q04DX003 (ip), vehicle: Klucel (hydroxypropylcellulose) (HPC).
The mark [4] stands for this setting: dose: 300.0 mg/kg/injection, schedule: Q01DX001 (ip), vehicle: carboxymethylcellulose (CMC).
The mark [5] stands for this setting: dose: 50.0 mg/kg/injection, schedule: Q01DX009 (ip), vehicle: Klucel (hydroxypropylcellulose) (HPC).
Setting [6] is: dose: 100.0 mg/kg/injection, schedule: Q04DX003 (ip), vehicle: Klucel (hydroxypropylcellulose) (HPC).
Setting [7] is: dose: 100.0 mg/kg/injection, schedule: Q04DX003 (ip), vehicle: saline with Tween-80.
The mark [8] stands for this setting: dose: 200.0 mg/kg/injection, schedule: Q04DX003 (ip), vehicle: saline with Tween-80.
Setting [9] is: dose: 400.0 mg/kg/injection, schedule: Q04DX003 (ip), vehicle: saline with Tween-80.
Where [10] appears, read: dose: 400.0 mg/kg/injection, schedule: Q01DX009 (ip), vehicle: Klucel (hydroxypropylcellulose) (HPC).

The list shows only some results of the screen, not a fair sample: it gathers tests that were run many times, whatever their T/C, doses with no T/C, and many T/C values between a quarter and a half above the control. Other doses and runs of a compound stand elsewhere. T/C gives the treated animals as a percentage of the vehicle group. Some doses have a count of surviving animals in place of a T/C: the source files T/C as zero there, which appears to mark a toxic dose or a test without result, not a measured value. Some survivor counts are full or nearly so, which does not show that the dose was tolerated: survival well below the control is almost never listed, so the zero probably covers shortened survival too. Survivors were counted at the toxicity check, usually on the fifth day, unless a day is given; later deaths do not show. Schedules are NCI's codes, read here as Q, the interval in days (D) or hours (H), X, the number of doses. Some schedule codes hold Z or #, which are not explained here. For survival time, the PubChem record calls one and a half times the control and up active, and a quarter to a half above the control has no call in these data; cut-offs in other NCI protocols can differ. Some doses were run more than once; their values stand side by side, smallest first. Some T/C values are followed by the survivors on the day toxicity was checked, most often the fifth; where none is given, no animal had died by that day.

On to `NNc1ncnc2nc[nH]c12`, for which the T/C (dose: 100.0 mg/kg/injection, schedule: Q01DX015 (ip), vehicle: saline) was 130 % of control [5 of 6 alive]. In addition, the survivor count is given as 0 of 6 (dose: 200.0 mg/kg/injection, schedule: Q01DX015 (ip), vehicle: saline) and 0 of 6 (dose: 400.0 mg/kg/injection, schedule: Q01DX015 (ip), vehicle: saline).
For `O=C(O)CNCC(=O)O`, the survivor count is 6 of 6 under setting [1] and 6 of 6 (dose: 400.0 mg/kg/injection, schedule: Q01DX009 (ip), vehicle: saline).
For the compound `O=C(c1cccc2ccccc12)N(c1ccccc1)c1ccccc1`, the survivor count runs as follows: under setting [2], 6 of 6; under setting [3], 5 of 6.
In the case of `Clc1ccccc1C(c1cccc2ccccc12)n1ccnc1` (configuration not stated), under “dose: 100.0 mg/kg/injection, schedule: Q01DX009 (ip), vehicle: Klucel (hydroxypropylcellulose) (HPC)”, the survivor count is reported as 6 of 6.
As for `CCCCCCC(=O)OCCN1CCN(CC/C=C2\c3ccccc3Sc3ccc(C(F)(F)F)cc32)CC1`, the T/C is, setting by setting: under setting [1], 125 % of control; (dose: 300.0 mg/kg/injection, schedule: Q04DX003 (ip), vehicle: saline) 144 % of control [4 of 6 alive]. Further, where the note is “dose: 300.0 mg/kg/injection, schedule: Q01DX009 (ip), vehicle: saline”, the survivor count was 6 of 6.
As to `S=C=NCc1ccc(Br)cc1`, the survivor count (dose: 20.0 mg/kg/injection, schedule: Q01DX001 (ip), vehicle: other) is listed as 1 of 6; the survivor count (dose: 40.0 mg/kg/injection, schedule: Q01DX001 (ip), vehicle: other) was 0 of 6; the survivor count (dose: 75.0 mg/kg/injection, schedule: Q01DX001 (ip), vehicle: carboxymethylcellulose (CMC)) was 0 of 6; the survivor count (dose: 150.0 mg/kg/injection, schedule: Q01DX001 (ip), vehicle: carboxymethylcellulose (CMC)) is 1 of 6; the survivor count under setting [4] is 0 of 6.
`C#CCONC(=O)c1ccc(OC)cc1`: the survivor count runs as follows: (dose: 200.0 mg/kg/injection, schedule: Q01DX009 (ip), vehicle: carboxymethylcellulose (CMC)) 1 of 6; (dose: 400.0 mg/kg/injection, schedule: Q01DX009 (ip), vehicle: carboxymethylcellulose (CMC)) 0 of 6.
`O=P(c1ccc(F)cc1)(c1ccc(F)cc1)c1ccc(F)cc1`: the survivor count reads like this: under setting [5], 5 of 6; under setting [6], 3 of 6; under setting [2], 6 of 6; under setting [3], 4 of 6.
Turning to `CCOC(=O)CCCl`, the survivor count (dose: 150.0 mg/kg/injection, schedule: Q04DX003 (ip), vehicle: saline) is reported as 6 of 6.
For `CC(C)C/C=N\N=C(N)N`, the survivor count by setting is: (dose: 120.0 mg/kg/injection, schedule: Q01DX Z (ip), vehicle: saline) 0 of 6; (dose: 240.0 mg/kg/injection, schedule: Q01DX Z (ip), vehicle: saline) 0 of 6; (dose: 240.0 mg/kg/injection, schedule: Q01DX Z (sc), vehicle: saline) 2 of 6; (dose: 480.0 mg/kg/injection, schedule: Q01DX Z (ip), vehicle: saline) 0 of 6; (dose: 480.0 mg/kg/injection, schedule: Q01DX Z (sc), vehicle: saline) 2 of 6.
For the compound `O=C(O)c1ccccc1-c1ccccc1C(=O)Nc1ccc2c(c1)Cc1cc(F)ccc1-2`, the survivor count under setting [4] was 0 of 6.
As to `C=CCc1ccc(OCCOCCN(C)C2CCCCC2)c(OC)c1`, the survivor count is reported as 1 of 6 under setting [2] and 0 of 6 under setting [3].
As for `N#CCC(=O)NCCc1ccccn1`, the survivor count is on record as 0 of 3 (dose: 200.0 mg/kg/injection, schedule: Q04DX002 (ip), vehicle: saline with Tween-80) and 0 of 3 (dose: 400.0 mg/kg/injection, schedule: Q04DX002 (ip), vehicle: saline with Tween-80).
As for `CC(C)C1C(C(=O)O)NC(=O)C1C(=O)O` (configuration not stated), the survivor count is, setting by setting: under setting [5], 6 of 6; under setting [6], 6 of 6; under setting [3], 6 of 6.
Turning to `NC(N)=N/N=C/c1cc([N+](=O)[O-])ccc1OCC(=O)O`, the survivor count by setting is: (dose: 720.0 mg/kg/injection, schedule: Q01DX Z (ip), vehicle: methylcellulose (MC)) 0 of 6; (dose: 960.0 mg/kg/injection, schedule: Q01DX Z (ip), vehicle: methylcellulose (MC)) 0 of 6.
Turning to `COc1cc(N=Nc2ccccc2)ccc1N`, the survivor count (dose: 200.0 mg/kg/injection, schedule: Q04DX003 (ip), vehicle: acetone) is given as 6 of 6.
Regarding `CC(C)Cn1c[n+](Cc2ccc([N+](=O)[O-])cc2)c2c1C(=O)c1ccccc1C2=O`, the survivor count was 0 of 6 under setting [7], 0 of 6 under setting [8] and 0 of 6 under setting [9].
Turning to `NC(=O)C1(Nc2ccc(-c3ccc(Br)cc3)cc2)CCCC1`, the survivor count (dose: 200.0 mg/kg/injection, schedule: Q01DX001 (ip), vehicle: carboxymethylcellulose (CMC)) is given as 3 of 4.
`O=C1OC2(c3ccc(O)cc3Oc3cc(O)ccc32)C2C3CCC(O3)C12` (configuration not stated): the survivor count (dose: 400.0 mg/kg/injection, schedule: Q04DX002 (ip), vehicle: Klucel (hydroxypropylcellulose) (HPC)) is recorded as 0 of 3.
As for `CCC1(c2ccccc2)NC(=O)N(C)C1=O` (configuration not stated), the survivor count under setting [10] is 3 of 6.
As to `O=C(CCC(=O)Nc1ccc(C2=NCCN2)cc1)Nc1ccc(C2=NCCN2)cc1`, the T/C (dose: 8.0 mg/kg/injection, schedule: Q01DX Z (ip), vehicle: carboxymethylcellulose (CMC)) was 130 and 148 % of control; the T/C (dose: 32.0 mg/kg/injection, schedule: Q01DX Z (ip), vehicle: carboxymethylcellulose (CMC)) was 139 % of control; the T/C (dose: 84.0 mg/kg/injection, schedule: Q01DX001 (ip), vehicle: carboxymethylcellulose (CMC)) is 126 % of control; the T/C (dose: 84.0 mg/kg/injection, schedule: Q01DX001 (ip), vehicle: other) was 131 % of control; the T/C (dose: 128.0 mg/kg/injection, schedule: Q01DX001 (ip), vehicle: other) was 134 % of control. The survivor count runs as follows: (dose: 192.0 mg/kg/injection, schedule: Q01DX001 (ip), vehicle: carboxymethylcellulose (CMC)) 0 of 10; (dose: 192.0 mg/kg/injection, schedule: Q01DX001 (ip), vehicle: other) 0 of 10.
Regarding `CCSSCC(NC(=O)OC(C)(C)C)C(=O)O` (configuration not stated), under “dose: 400.0 mg/kg/injection, schedule: Q01DX001 (ip), vehicle: other”, the survivor count is listed as 0 of 6.
For the compound `Nc1nc(N)nc(CCP(CCc2nc(N)nc(N)n2)CCc2nc(N)nc(N)n2)n1`, under setting [3], the survivor count is on record as 2 of 6.
Regarding `CN(C)c1ccc(/C=C2\C=Cc3ccccc32)cc1Br`, the survivor count is, setting by setting: under setting [8], 2 of 6; under setting [9], 1 of 6.
For `Fc1ccc(NC(=S)NCCN2CCCC2)cc1`, the survivor count runs as follows: (dose: 200.0 mg/kg/injection, schedule: Q01DX009 (ip), vehicle: Klucel (hydroxypropylcellulose) (HPC)) 3 of 6; under setting [10], 0 of 6.
On to `Cc1[nH]cnc1C(c1ccccc1)c1ccccc1`, for which, under “dose: 400.0 mg/kg/injection, schedule: Q01DX001 (ip), vehicle: saline with Tween-80”, the survivor count is listed as 0 of 6.
Regarding `COc1ccc(-c2c(O)c3cccc(-c4ccccc4)c3oc2=O)cc1`, where the note is “dose: 400.0 mg/kg/injection, schedule: Q04DX003 (ip), vehicle: saline”, the survivor count was 0 of 3.
As to `Cc1ccc(-n2c(=S)[nH]c3ccc(C)cc3c2=O)cc1`, the survivor count runs as follows: (dose: 50.0 mg/kg/injection, schedule: Q01DX009 (ip), vehicle: saline with Tween-80) 6 of 6; (dose: 100.0 mg/kg/injection, schedule: Q01DX009 (ip), vehicle: saline with Tween-80) 6 of 6; under setting [8], 6 of 6; under setting [9], 6 of 6.
As for `CCOc1ccc2c(c1)c(C)cc(C)[n+]2CC`, the survivor count under setting [7] is recorded as 0 of 3, the survivor count under setting [8] is reported as 0 of 3 and the survivor count under setting [9] is reported as 0 of 3.
